{"source": "patent US4382935A", "about": "“Analgesic drug containing a derivative of benzylpiperazine” (Buzas; Andre, priority 1980, dated 1983)", "molecular_target": "morphine-compound cerebral receptors", "assay": "Fixation on morphine-compound cerebral receptors (displacement of tritiated etorphin)", "format": "binding", "conditions": "rat-brain homogenate, 1 mg/ml protein, 30 minutes at 35° C; read-out: CI50 (displacement of tritiated etorphin)", "experimental": "It is sought to determine the affinity of the products under study by means of their capacity for displacement of tritiated etorphin in a rat-brain homogenate (containing 1 mg/ml of protein) over a period of 30 minutes at 35° C. This test consists in determining the value CI50 corresponding to the concentration of products which are capable of inhibiting 50% of the specific radioactive ligand bond.", "data": [{"compound": "CN1CC[C@]23c4c5ccc(O)c4O[C@H]2[C@@H](O)C=C[C@H]3[C@H]1C5", "note": "[morphine]", "values": [{"measurement": "IC50", "value": 179, "unit": "nM"}]}]}
